In this data set the test system is ALDH+ cells. Put plainly: RNA sequencing of flow-sorted ALDH+ vs ALDH- islet cells (wild-type and Foxo knockout). Details: species or system mouse.
The mark [1] stands for this setting: wild-type ALDH− vs. ALDH+ cells (ALDH+/ALDH−).

As for Tbca, the “baseMean ALDH+” value (RNA sequencing, wild-type ALDH+ cells) turned out to be 462.7. Moreover, the baseMean all (RNA sequencing, wild-type ALDH− and ALDH+ cells, mean of all samples) is given as 825.4. Further, where the note is “RNA sequencing, wild-type ALDH− cells”, the “baseMean ALDH−” value was determined as 1007. Under setting [1], the Fold-Change is 0.4596 and the “log2 Fold-Change” value is −1.122.

For the origin of these results see patent publication US10732173B2, “Use of aldehyde dehydrogenase as biomarker for beta-cell dysfunction and loss” (THE TRUSTEES OF COLUMBIA UNIVERSITY IN THE CITY OF NEW YORK, priority 2015, dated 2020).
